Results deposited as PubChem BioAssay AID504786 (Drosophila RNAi Screening Center, 2011)
Test: 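Positive regulators of HIF-driven reporter output in Drosophila cells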 (primary screen). Cells: Drosophila S2 cells with a stable HIF luciferase reporter. Reagent: long dsRNA against Drosophila genes, about 0.2 µg dsRNA per well of a 384-well plate. Timing: three days of knock-down, then 20 h of DFO before reading. Treatment: desferrioxamine (DFO) at 100 µM, an iron chelator that mimics hypoxia, for 20 h. Detection: 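Firefly luciferase driven by the mouse ldh-a hypoxia-response element, measured after 20 h of 100 µM DFO; z-scores per plate, higher means more signal lost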. Scale: z-score: higher = stronger loss of HIF reporter signal.
The deposit covers about 21,000 reagents; shown is an unselected part of those with a known target gene and a result. 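Primary screen; positive scores mean lost reporter signal, so the sign may be inverted from the usual convention.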 The numbers tell different reagents against one gene apart.

gene knocked down | reagent | z-score, replicate 1 | z-score, replicate 2 | z-score, replicate 3 | z-score, replicate 4
Sema1a (Semaphorin 1a) | 1 | -0.3 | -0.3 | – | –
Rab21 | 1 | -0.4 | -0.3 | – | –
ND5 (retired record) | 1 | -0.1 | 0.3 | – | –
CG3308 | 1 | -0.2 | -0.3 | – | –
CG6576 | 1 | -0.4 | -0.3 | – | –
CG31551 | 1 | -0.4 | -0.6 | -0.1 | -0.2
Cda4 (Chitin deacetylase-like 4) | 1 | -0.4 | 0 | – | –
Cda4 (Chitin deacetylase-like 4) | 2 | -0.3 | 0 | – | –
Cda4 (Chitin deacetylase-like 4) | 3 | -0.3 | 0 | – | –
CG6873 | 1 | 1.4 | 2.4 | – | –
ppk7 (pickpocket 7) | 1 | -0.1 | -0.5 | – | –
Semp1 (Seminal metalloprotease-1) | 1 | -0.3 | -0.5 | – | –
TrpA1 (Transient receptor potential cation channel A1) | 1 | -0.2 | -0.3 | – | –
Mpv17 (Mitochondrial inner membrane protein MPV17) | 1 | -0.4 | 1.4 | – | –
RpL15 (Ribosomal protein L15) | 1 | – | 9.7 | – | –
Rab26 | 1 | 0.3 | 1 | – | –
Rab26 | 2 | -0.2 | 0.3 | – | –
Rab26 | 3 | -0.3 | 0.3 | – | –
CG4619 | 1 | -0.2 | -0.6 | – | –
Atg9 (Autophagy-related 9) | 1 | -0.3 | -0.5 | – | –
eEF2 (eukaryotic translation elongation factor 2) | 1 | 6.5 | 5.2 | – | –
CG8870 | 1 | -0.3 | 1.6 | – | –
CG13001 | 1 | 0 | -0.2 | -0.5 | -0.2
Kr-h2 (Kruppel homolog 2) | 1 | -0.3 | -0.2 | – | –

4 entries already listed, sorted by “z-score, replicate 2”, low to high:
gene knocked down | reagent | z-score, replicate 1 | z-score, replicate 2 | z-score, replicate 3 | z-score, replicate 4
ppk7 (pickpocket 7) | 1 | -0.1 | -0.5 | – | –
Semp1 (Seminal metalloprotease-1) | 1 | -0.3 | -0.5 | – | –
TrpA1 (Transient receptor potential cation channel A1) | 1 | -0.2 | -0.3 | – | –
CG6873 | 1 | 1.4 | 2.4 | – | –

Continued.
gene knocked down | reagent | z-score, replicate 1 | z-score, replicate 2 | z-score, replicate 3 | z-score, replicate 4
b (black) | 1 | -0.3 | 0.8 | – | –
GLaz (Glial Lazarillo) | 1 | 0 | 0.5 | – | –
Cpr47Eb (Cuticular protein 47Eb) | 1 | -0.4 | -0.3 | – | –
CG15615 | 1 | -0.2 | -0.3 | – | –
CG3795 | 1 | -0.2 | -0.9 | – | –
Qsox4 (Quiescin sulfhydryl oxidase 4) | 1 | -0.2 | -0.3 | – | –
Adk1 (Adenosine kinase 1) | 1 | -0.3 | 0.1 | – | –
hydra | 1 | -0.3 | -0.3 | – | –
Prim2 (DNA primase subunit 2) | 1 | 1 | 1.3 | – | –
Snx27 (Sorting nexin 27) | 1 | -0.3 | -0.3 | – | –
Snx27 (Sorting nexin 27) | 2 | -0.2 | -0.1 | – | –
Snx27 (Sorting nexin 27) | 3 | -0.3 | -0.3 | – | –
